Results: patent US9717719B2, “Treatment, prevention, and reversal of alcohol-induced liver disease” (Rhode Island Hospital, priority 2006, dated 2017)
The name of at least one read-out is uncertain. At least one structure is not confirmed: it was looked up by name or label, or the drawing left a doubt.

Key:
insulin receptor = assay: Saturation binding assay in liver of treated rats, insulin receptor binding; type: in vivo, rat; conditions: Ethanol + agonist, Kd of [125I] insulin in liver of treated rats, not of the agonist
IGF-I receptor = assay: Saturation binding assay in liver of treated rats, IGF-I receptor binding; type: in vivo, rat; conditions: Ethanol + agonist, Kd of [125I] IGF-I in liver of treated rats, not of the agonist

Row | KD ± S.E.M (insulin receptor) | KD ± S.E.M (IGF-I receptor) | SMILES
1 | lowered | increased | CC(C)C[C@H](NC(=O)OCC1c2ccccc2-c2ccccc21)C(=O)O [PPAR-γ, F-L-Leu]
2 | increased | significantly increased | CC(C)(Sc1ccc(CCN(CCCCC2CCCCC2)C(=O)NC2CCCCC2)cc1)C(=O)O [PPAR-α, GW7647]
